Test results from patent publication US20220275059A1.
Substitutions are numbered along the chain they refer to. These are yes or no findings as the source states them, for the method shown.

Sequences of proteins named here, by UniProt entry; tags and fusion partners are left off. Residues count along the entry.
UniProt Q6Q1S2, residues 16-1291: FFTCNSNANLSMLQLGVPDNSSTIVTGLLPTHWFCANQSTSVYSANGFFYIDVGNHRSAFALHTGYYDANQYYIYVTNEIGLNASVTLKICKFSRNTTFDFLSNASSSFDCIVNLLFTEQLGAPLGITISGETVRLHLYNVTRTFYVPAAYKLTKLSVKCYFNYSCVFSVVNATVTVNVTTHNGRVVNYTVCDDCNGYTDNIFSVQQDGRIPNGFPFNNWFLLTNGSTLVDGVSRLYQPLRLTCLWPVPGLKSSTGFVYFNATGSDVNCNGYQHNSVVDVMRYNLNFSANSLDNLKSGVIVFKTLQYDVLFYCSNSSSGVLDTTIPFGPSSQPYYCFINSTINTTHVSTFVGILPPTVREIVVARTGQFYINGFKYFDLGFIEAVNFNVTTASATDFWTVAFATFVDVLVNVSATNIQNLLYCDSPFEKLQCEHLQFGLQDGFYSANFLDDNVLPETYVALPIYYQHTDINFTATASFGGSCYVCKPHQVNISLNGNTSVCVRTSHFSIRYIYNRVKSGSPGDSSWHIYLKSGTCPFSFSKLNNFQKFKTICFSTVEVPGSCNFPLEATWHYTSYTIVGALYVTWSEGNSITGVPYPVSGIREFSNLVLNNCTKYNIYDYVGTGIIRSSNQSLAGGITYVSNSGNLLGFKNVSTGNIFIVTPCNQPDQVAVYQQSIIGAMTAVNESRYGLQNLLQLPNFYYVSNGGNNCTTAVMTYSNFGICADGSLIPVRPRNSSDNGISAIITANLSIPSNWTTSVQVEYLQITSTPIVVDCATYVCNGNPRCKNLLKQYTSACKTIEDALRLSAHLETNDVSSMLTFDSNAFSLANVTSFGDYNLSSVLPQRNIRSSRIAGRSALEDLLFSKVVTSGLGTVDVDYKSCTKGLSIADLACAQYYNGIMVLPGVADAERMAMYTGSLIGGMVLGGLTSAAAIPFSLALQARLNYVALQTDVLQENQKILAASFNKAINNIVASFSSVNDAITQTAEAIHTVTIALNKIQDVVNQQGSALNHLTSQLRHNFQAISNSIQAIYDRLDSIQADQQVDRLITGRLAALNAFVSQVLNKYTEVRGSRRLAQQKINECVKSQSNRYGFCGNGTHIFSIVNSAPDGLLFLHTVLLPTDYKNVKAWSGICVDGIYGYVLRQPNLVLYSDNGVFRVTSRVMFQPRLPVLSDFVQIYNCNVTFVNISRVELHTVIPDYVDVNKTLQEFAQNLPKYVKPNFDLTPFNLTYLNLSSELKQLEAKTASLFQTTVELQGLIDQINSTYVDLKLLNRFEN

Molecular target: NL63 coronavirus spike protein (HCoV-NL63) (UniProt Q6Q1S2)
Experiment: ELISA on NL63 Secto

B1: 1.5d6 (antibody, V domains shown)
VH: QVQLVESGGGVVQPGRSLRLSCAASGFTFSRYGMHWVRQAPGKGLEWVAVIGYDGSNKYYADSVKGRFTISRDNSKNTLSLQMNSLRAEDTAVYYCARGGWNDDYYYGLDVWGQGTTVTVSS
VL: DIVMTQSPLSLPVIPGEPASISCRSSQSLLHSNGYNYLDWYLQKPGQSPQLLIYLGSNRASGVPDRFSGSGSGTDFTLKISIVEAEDAGVYYCMQVLQTPWTFGQGTKVEIKR
For B1, the binding was “no binding (tested: 25.00 (no unit printed))”.

B2: 1.13a9 (antibody, V domains shown)
VH: EVQLVESGGGLVQPGGSLRLSCAASGFTFSNYWMTWVRQAPGKGLEWVANIKEDGSEKYYVDSVKGRFTLSRDNAKNSLYLQMNSLRAEDTAVYYCAKEGALLWFGVLRPRAFDIWGQGTMVTVSS
VL: B1 VL with I14T, K44N, Q50H, G56A, I82R, E86A, A88V, V96A, W101Y, V109L
For B2, the binding was “no binding (tested: 25.00 (no unit printed))”.
